The record followed here is paper PMC9607361.

Protein sequences, listed by entry. Tags and fused reporters are not part of them.
UniProt Q6DV79: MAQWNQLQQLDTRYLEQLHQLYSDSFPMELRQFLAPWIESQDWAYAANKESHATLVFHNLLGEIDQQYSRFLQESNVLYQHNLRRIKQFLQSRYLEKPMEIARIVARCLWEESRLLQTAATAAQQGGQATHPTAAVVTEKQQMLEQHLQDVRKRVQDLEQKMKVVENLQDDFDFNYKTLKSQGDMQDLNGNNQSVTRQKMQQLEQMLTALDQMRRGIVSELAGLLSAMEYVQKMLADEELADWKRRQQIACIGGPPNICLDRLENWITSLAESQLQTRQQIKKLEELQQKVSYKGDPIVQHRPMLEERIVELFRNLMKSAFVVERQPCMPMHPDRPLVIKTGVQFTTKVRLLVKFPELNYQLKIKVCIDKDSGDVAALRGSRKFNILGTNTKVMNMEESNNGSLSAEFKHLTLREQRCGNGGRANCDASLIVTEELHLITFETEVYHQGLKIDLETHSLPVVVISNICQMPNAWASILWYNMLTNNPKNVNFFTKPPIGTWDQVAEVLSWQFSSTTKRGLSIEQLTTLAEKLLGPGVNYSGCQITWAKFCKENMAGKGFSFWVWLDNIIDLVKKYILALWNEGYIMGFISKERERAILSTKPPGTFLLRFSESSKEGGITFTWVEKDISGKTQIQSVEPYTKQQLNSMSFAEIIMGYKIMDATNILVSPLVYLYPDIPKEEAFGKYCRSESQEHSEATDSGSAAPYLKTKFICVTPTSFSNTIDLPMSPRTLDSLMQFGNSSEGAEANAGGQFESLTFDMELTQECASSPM

Assay [1] deals with T1, Flag-TRAF6 (chicken TRAF6) (chicken) (UniProt E1C626).
T1 sequence: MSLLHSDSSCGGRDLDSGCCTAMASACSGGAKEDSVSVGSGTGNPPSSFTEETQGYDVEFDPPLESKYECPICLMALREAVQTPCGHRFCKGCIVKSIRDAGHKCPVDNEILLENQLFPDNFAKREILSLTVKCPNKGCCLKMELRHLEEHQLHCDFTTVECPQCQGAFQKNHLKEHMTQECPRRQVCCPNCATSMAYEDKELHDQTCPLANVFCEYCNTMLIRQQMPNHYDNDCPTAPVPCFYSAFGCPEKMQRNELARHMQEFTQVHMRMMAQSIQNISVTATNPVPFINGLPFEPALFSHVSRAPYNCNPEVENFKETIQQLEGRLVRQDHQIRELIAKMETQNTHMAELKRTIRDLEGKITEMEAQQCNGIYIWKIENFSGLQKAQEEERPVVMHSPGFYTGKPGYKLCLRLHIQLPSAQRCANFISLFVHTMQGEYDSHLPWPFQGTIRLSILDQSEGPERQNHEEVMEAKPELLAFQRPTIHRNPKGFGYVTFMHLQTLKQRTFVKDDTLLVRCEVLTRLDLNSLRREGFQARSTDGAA
Put plainly: co-IP; DF-1 cells co-transfected with Flag- and HA-tagged expression plasmids, cultured 48 h, lysed with NP-40, protein A/G; immunoblot. For orientation: In western blotting, separated proteins are transferred to a membrane and probed.

Assay [2] has as its target T2, HA-TRAF6 (chicken TRAF6) (chicken) (UniProt E1C626).
T2 sequence: T1 sequence
Described as above.

No constants are given. Whether binding was seen depends on the method and setting. Binding seen in cells or lysates may run through a third protein. Some binding calls cover weakened binding; strength is not graded here. Tags and fused reporters may be left off the sequences shown.

As for “HA-STAT3 (chicken STAT3) (from UniProt Q6DV79 1-771)”, the binding result in assay [1] was “binds”.

In the case of “Flag-STAT3 (chicken STAT3) (from UniProt Q6DV79 1-771)”, the binding entry in assay [2] is “binds”.
